In PMC7891422 (Chembiochem, 2020):
The same purity stands for every peptide and may come from a single statement.

Experiment: general procedure: Fmoc solid-phase peptide synthesis; TGR RAM resin; DIC/HOBt
Details: whole synthesis, analytical reversed-phase HPLC on at least two columns (Jupiter Proteo, Kinetex Biphenyl, Aeris Peptide)

Substance | final HPLC purity [%]
K-Wrf-FwLL-NH2 | >95
K-Wsf-FwLL-NH2 | >95
